{
  "sequences": {"note": "Sequences of proteins named here, by UniProt entry; tags and fusion partners are left off. A change or cut given only in a name is not applied to a line headed by its entry.", "UniProt P29122": "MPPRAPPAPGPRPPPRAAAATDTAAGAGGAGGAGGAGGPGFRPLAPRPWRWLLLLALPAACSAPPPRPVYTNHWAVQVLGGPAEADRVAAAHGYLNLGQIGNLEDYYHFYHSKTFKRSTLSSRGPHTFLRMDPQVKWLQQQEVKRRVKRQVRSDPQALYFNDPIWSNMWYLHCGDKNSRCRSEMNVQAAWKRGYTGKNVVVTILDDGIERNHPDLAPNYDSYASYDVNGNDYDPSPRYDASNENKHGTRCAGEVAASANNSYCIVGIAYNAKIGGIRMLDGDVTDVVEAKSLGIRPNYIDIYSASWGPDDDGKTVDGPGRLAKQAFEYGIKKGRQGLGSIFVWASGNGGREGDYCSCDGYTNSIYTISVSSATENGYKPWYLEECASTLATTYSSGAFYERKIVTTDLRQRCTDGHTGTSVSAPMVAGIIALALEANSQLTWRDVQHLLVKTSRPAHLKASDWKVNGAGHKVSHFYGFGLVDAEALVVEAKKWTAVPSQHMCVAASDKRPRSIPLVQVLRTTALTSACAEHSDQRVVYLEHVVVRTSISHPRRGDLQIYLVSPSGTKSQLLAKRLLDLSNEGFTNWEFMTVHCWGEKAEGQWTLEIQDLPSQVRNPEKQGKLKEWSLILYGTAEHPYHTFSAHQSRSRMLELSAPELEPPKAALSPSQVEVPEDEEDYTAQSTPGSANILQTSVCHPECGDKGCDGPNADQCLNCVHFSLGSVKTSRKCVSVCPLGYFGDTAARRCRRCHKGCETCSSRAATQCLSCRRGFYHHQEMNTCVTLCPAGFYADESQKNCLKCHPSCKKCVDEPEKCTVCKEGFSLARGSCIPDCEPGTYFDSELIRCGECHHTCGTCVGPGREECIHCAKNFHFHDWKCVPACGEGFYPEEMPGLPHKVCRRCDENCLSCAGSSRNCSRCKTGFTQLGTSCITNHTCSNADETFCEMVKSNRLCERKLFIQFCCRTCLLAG", "UniProt O60829": "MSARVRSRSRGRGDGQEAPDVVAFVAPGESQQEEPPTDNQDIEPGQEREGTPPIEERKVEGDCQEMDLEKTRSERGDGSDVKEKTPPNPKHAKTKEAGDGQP", "UniProt Q9NV79": "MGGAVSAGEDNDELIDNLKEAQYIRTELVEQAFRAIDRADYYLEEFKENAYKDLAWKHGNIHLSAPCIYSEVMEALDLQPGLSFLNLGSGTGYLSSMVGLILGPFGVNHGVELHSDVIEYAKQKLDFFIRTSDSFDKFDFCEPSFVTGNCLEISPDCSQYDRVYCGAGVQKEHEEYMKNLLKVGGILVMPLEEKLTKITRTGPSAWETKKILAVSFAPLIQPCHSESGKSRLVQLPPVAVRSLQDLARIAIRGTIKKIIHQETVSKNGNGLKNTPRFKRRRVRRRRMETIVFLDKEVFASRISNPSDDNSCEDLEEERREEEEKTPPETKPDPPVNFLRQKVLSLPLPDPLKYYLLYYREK", "UniProt Q8TE04": "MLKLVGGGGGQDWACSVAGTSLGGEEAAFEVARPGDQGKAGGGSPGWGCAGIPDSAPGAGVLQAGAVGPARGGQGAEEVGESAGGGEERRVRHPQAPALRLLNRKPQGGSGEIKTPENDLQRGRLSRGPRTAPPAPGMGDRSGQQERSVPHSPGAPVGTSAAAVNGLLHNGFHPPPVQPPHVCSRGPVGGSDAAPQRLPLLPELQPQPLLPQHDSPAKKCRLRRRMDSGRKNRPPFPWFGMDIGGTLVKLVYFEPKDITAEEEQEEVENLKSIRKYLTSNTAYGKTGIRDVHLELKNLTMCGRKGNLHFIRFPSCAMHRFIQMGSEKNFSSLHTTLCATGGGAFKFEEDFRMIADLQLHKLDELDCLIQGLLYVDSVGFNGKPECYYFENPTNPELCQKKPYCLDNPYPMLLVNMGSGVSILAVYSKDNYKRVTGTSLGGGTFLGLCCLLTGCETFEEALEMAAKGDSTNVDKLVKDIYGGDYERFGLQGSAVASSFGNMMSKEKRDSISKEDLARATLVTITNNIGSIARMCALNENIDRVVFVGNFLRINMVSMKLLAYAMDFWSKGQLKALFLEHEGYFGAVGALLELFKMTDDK", "UniProt Q16342": "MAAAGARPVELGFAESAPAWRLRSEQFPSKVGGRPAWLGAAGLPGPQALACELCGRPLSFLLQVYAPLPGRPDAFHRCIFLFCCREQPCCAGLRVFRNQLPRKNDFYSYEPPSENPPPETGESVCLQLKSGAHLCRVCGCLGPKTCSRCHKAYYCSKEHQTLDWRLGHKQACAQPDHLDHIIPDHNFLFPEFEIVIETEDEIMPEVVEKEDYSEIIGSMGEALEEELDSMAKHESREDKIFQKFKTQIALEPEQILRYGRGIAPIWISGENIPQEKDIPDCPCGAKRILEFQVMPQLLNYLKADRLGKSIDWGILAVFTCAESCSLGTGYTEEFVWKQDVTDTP", "UniProt Q96RV3": "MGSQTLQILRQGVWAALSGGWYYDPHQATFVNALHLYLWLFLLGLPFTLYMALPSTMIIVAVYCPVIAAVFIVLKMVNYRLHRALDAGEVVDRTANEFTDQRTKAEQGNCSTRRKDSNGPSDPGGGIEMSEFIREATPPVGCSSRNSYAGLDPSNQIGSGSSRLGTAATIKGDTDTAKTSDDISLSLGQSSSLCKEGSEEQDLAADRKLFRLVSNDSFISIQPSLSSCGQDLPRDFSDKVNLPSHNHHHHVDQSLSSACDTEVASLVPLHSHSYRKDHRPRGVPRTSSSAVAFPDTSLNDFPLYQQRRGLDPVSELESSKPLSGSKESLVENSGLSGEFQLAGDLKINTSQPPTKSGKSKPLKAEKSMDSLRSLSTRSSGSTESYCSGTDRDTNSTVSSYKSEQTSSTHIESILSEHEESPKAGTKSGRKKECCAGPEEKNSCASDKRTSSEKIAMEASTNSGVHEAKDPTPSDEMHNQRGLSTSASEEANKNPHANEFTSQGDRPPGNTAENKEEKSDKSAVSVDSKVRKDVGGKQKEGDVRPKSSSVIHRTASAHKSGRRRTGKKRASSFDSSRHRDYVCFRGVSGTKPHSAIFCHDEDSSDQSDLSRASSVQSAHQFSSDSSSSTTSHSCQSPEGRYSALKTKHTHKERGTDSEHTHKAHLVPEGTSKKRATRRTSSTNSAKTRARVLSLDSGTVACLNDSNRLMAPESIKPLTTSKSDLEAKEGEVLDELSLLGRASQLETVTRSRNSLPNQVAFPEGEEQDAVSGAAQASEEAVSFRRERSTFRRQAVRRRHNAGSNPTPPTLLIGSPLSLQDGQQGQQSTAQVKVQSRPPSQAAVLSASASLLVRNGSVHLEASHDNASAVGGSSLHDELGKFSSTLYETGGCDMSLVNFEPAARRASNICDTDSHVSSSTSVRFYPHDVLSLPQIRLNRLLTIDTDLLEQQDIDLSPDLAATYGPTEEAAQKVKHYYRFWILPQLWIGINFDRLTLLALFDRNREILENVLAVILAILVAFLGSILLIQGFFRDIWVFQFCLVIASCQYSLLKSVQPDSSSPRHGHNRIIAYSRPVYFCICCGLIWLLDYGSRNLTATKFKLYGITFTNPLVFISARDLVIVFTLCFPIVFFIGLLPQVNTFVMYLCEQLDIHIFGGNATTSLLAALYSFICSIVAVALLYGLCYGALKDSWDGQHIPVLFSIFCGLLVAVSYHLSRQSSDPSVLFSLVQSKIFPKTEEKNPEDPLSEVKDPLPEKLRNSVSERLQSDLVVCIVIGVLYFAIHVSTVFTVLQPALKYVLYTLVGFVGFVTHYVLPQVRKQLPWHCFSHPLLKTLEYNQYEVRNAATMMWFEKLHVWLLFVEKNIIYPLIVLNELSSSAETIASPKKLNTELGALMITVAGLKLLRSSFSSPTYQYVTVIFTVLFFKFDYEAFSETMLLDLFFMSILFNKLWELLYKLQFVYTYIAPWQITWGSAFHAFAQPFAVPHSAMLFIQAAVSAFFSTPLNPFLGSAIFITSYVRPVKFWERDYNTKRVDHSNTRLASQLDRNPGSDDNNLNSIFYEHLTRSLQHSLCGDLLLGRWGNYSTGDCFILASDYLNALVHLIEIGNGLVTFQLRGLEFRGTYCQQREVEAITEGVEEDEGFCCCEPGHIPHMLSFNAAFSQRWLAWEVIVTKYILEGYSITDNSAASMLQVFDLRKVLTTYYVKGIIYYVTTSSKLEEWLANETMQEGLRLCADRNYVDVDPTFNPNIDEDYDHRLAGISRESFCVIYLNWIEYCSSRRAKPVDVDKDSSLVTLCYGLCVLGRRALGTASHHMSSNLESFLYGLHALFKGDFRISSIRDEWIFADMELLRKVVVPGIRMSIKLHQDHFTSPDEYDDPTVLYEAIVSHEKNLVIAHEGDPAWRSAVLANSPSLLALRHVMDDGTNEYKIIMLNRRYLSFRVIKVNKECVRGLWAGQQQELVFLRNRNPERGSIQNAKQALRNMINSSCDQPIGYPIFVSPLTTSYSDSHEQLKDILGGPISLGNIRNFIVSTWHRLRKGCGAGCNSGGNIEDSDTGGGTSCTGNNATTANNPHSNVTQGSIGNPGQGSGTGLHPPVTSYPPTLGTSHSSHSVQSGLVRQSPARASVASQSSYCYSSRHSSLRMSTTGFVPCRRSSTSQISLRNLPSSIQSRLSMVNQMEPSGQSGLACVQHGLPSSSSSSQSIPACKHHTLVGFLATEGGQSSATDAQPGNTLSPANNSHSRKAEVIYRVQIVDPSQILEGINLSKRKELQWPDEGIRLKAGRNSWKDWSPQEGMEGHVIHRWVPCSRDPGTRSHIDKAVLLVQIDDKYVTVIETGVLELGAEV", "UniProt Q9Y5B6": "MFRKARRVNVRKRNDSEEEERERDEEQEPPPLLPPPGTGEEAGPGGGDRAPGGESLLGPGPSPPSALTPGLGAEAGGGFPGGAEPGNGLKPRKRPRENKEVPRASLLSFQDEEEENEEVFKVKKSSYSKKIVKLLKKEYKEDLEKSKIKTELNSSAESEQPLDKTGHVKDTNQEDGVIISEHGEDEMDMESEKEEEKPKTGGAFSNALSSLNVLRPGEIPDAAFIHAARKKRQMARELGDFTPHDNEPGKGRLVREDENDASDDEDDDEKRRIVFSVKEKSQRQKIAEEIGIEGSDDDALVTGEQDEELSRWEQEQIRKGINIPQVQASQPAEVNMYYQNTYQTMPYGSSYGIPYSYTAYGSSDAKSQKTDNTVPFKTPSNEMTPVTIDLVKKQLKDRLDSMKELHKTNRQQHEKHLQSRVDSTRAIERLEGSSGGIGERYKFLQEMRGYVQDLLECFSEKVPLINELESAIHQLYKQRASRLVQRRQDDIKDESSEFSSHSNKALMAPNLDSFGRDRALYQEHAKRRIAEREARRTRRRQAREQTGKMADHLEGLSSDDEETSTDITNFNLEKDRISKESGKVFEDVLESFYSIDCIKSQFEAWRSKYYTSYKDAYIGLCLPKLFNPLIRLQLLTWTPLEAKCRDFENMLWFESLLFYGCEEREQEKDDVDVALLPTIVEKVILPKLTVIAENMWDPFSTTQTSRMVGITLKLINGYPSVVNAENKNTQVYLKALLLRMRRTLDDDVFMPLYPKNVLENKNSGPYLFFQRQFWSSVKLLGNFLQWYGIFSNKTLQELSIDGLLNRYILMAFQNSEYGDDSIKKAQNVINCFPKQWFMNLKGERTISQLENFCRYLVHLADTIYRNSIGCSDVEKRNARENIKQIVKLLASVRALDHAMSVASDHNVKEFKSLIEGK", "UniProt O60683": "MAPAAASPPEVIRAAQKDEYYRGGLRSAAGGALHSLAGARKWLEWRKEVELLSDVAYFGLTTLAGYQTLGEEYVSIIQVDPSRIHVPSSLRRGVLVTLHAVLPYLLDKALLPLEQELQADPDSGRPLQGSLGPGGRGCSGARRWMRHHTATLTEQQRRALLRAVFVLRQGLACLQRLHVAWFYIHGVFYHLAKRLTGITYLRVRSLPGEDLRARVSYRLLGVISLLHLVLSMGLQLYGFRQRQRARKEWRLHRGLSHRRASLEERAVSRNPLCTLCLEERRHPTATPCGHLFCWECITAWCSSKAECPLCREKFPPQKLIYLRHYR", "UniProt Q9P0J1": "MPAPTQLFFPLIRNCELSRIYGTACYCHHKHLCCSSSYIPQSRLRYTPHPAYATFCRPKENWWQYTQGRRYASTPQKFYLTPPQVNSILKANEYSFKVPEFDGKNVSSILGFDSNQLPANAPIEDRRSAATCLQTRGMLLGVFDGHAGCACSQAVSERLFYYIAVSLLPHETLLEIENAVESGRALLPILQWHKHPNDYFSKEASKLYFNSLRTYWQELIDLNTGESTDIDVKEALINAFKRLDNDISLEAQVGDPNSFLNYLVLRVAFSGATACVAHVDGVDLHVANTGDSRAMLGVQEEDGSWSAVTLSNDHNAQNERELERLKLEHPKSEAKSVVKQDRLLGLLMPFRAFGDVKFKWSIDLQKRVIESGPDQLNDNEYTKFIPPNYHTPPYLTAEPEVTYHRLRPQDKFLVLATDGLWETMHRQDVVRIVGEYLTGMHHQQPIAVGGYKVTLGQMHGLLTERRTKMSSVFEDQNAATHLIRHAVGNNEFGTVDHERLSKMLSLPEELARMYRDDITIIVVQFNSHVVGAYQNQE"},
  "source": "the supplement of paper PMC10849652",
  "note": "The other results are listed elsewhere or left out.",
  "data": [
    {"compound": "CC1=C(C(CC(=O)N1)C2=CC=C(C=C2)C(F)(F)F)C(=O)NC3=C(C=C4C(=C3)C=NN4)F", "experiment": "log2 fold change, soluble protein after heating vs DMSO (PISA); higher = thermal stabilisation; K562 cells, 10 uM, 30 min; active = over 0.2 and 3.5 SD of the protein, either way, in both replicates (recomputed)", "procedure,_shortened": "(§1)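 K562 cells at 2×10^6 cells/mL were treated with 10 μM compound for 30 min. Aliquots were heated for 3 min across 48°C-58°C, pooled, and extracted in PBS with 0.5% NP-40 at 4°C; soluble protein was the supernatant after 21,000xg for 90 min. Soluble protein was quantified by TMTpro 16plex LC-MS/MS with channel sums equalised, and reported as log2 fold change in thermal stability against DMSO controls, with values from duplicates.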", "values": [
      {"target": "PAPOLA (UniProt G3XAH6)", "log2 fold change": "inactive: 0.088"},
      {"target": "PANK3 (UniProt Q9H999)", "log2 fold change": "inactive: -0.111"},
      {"target": "PCSK6 isoform 7 (UniProt P29122)", "log2 fold change": "inactive: 0.099"},
      {"target": "PAGE4 (UniProt O60829)", "log2 fold change": "inactive: 0.07"},
      {"target": "PCMTD2 (UniProt Q9NV79)", "log2 fold change": "inactive: 0.17"},
      {"target": "PANK1 (UniProt Q8TE04)", "log2 fold change": "inactive: 0.078"}
    ]},
    {"compound": "CC1=C(C2=C(C=C1)C(=O)C3=CC=CC=C3N2CCCN)C", "experiment": "log2 fold change, soluble protein after heating vs DMSO (PISA); higher = thermal stabilisation; K562 cells, 10 uM, 30 min; active = over 0.2 and 3.5 SD of the protein, either way, in both replicates (recomputed)", "procedure,_shortened": "as §1", "values": [
      {"target": "PDCD2 (UniProt Q16342)", "log2 fold change": "inactive: -0.123"},
      {"target": "PDIA4, A0A499FI48", "log2 fold change": "inactive: -0.044"},
      {"target": "PCNX1 (UniProt Q96RV3)", "log2 fold change": "inactive: 0.143"},
      {"target": "PANK3 (UniProt Q9H999)", "log2 fold change": "inactive: -0.029"},
      {"target": "PEMT isoform 2 (UniProt Q9UBM1)", "log2 fold change": "inactive: 0.025"},
      {"target": "PCDH1 isoform 2 (UniProt Q08174)", "log2 fold change": "inactive: -0.096"},
      {"target": "PAGE4 (UniProt O60829)", "log2 fold change": "inactive: -0.027"},
      {"target": "PCMTD2 (UniProt Q9NV79)", "log2 fold change": "inactive: 0.115"},
      {"target": "PAXBP1 (UniProt Q9Y5B6)", "log2 fold change": "inactive: -0.465"},
      {"target": "PANK1 (UniProt Q8TE04)", "log2 fold change": "inactive: 0.038"},
      {"target": "PEX10 isoform 2 (UniProt O60683)", "log2 fold change": "inactive: -0.103"}
    ]},
    {"compound": "CC1=C(C=C(C=C1)NC(=O)C2=CC(=CC=C2)C(C)(C)C#N)NC3=CC4=C(C=C3)N=CN(C4=O)C", "experiment": "log2 fold change, soluble protein after heating vs DMSO (PISA); higher = thermal stabilisation; K562 cells, 10 uM, 30 min; active = over 0.2 and 3.5 SD of the protein, either way, in both replicates (recomputed)", "procedure,_shortened": "as §1", "values": [
      {"target": "PACS2 isoform 2 (UniProt Q86VP3)", "log2 fold change": "inactive: -0.356"},
      {"target": "PDCD2 (UniProt Q16342)", "log2 fold change": "inactive: -0.083"},
      {"target": "PACRGL (UniProt Q8N7B6)", "log2 fold change": "inactive: 0.01"},
      {"target": "PANK3 (UniProt Q9H999)", "log2 fold change": "inactive: 0.048"},
      {"target": "PARP4 (UniProt Q9UKK3)", "log2 fold change": "inactive: -0.357"},
      {"target": "PCDH1 isoform 2 (UniProt Q08174)", "log2 fold change": "inactive: -0.129"},
      {"target": "PCSK6 isoform 7 (UniProt P29122)", "log2 fold change": "inactive: -0.314"},
      {"target": "PDP1 isoform 2 (UniProt Q9P0J1)", "log2 fold change": "inactive: -0.144"},
      {"target": "PAGE4 (UniProt O60829)", "log2 fold change": "inactive: 0.165"},
      {"target": "PCM1 isoform 2 (UniProt Q15154)", "log2 fold change": "inactive: -0.354"},
      {"target": "PANK1 (UniProt Q8TE04)", "log2 fold change": "inactive: -0.03"},
      {"target": "PEX10 isoform 2 (UniProt O60683)", "log2 fold change": "inactive: -0.002"}
    ]},
    {"compound": "CC1=C(C=C(C=C1)NC(=O)C2=CC(=CC=C2)N(C)C)NC(=O)C3=CC=C(C=C3)O", "experiment": "log2 fold change, soluble protein after heating vs DMSO (PISA); higher = thermal stabilisation; K562 cells, 10 uM, 30 min; active = over 0.2 and 3.5 SD of the protein, either way, in both replicates (recomputed)", "procedure,_shortened": "as §1", "values": [
      {"target": "PAICS (UniProt D6RF62)", "log2 fold change": "inactive: 0.14"},
      {"target": "PDIA4, A0A499FI48", "log2 fold change": "inactive: -0.013"},
      {"target": "PCBP2 (UniProt F8VZX2)", "log2 fold change": "inactive: -0.14"},
      {"target": "PANK3 (UniProt Q9H999)", "log2 fold change": "inactive: 0.072"},
      {"target": "PACSIN3 (UniProt Q9UKS6)", "log2 fold change": "inactive: -0.005"},
      {"target": "PAGE4 (UniProt O60829)", "log2 fold change": "inactive: 0.108"},
      {"target": "PAN3 (UniProt Q58A45)", "log2 fold change": "inactive: 0.101"},
      {"target": "PCMTD2 (UniProt Q9NV79)", "log2 fold change": "inactive: 0.11"},
      {"target": "PAF1 (UniProt Q8N7H5)", "log2 fold change": "inactive: 0"},
      {"target": "PAXBP1 (UniProt Q9Y5B6)", "log2 fold change": "inactive: 0.117"},
      {"target": "PANK1 (UniProt Q8TE04)", "log2 fold change": "inactive: 0.02"}
    ]},
    {"compound": "CC1=CC=C(C=C1)SC2=C3C=C(SC3=CN=C2)C(=O)N", "experiment": "log2 fold change, soluble protein after heating vs DMSO (PISA); higher = thermal stabilisation; K562 cells, 10 uM, 30 min; active = over 0.2 and 3.5 SD of the protein, either way, in both replicates (recomputed)", "procedure,_shortened": "as §1", "values": [
      {"target": "PAICS (UniProt D6RF62)", "log2 fold change": "inactive: -0.179"},
      {"target": "PDIA4, A0A499FI48", "log2 fold change": "inactive: -0.283"},
      {"target": "PCNX1 (UniProt Q96RV3)", "log2 fold change": "inactive: -0.373"},
      {"target": "PANK3 (UniProt Q9H999)", "log2 fold change": "inactive: 0.04"},
      {"target": "PCSK6 isoform 7 (UniProt P29122)", "log2 fold change": "inactive: -0.114"},
      {"target": "PDP1 isoform 2 (UniProt Q9P0J1)", "log2 fold change": "inactive: 0.047"},
      {"target": "PCYT2 (UniProt I3L1F9)", "log2 fold change": "inactive: -0.28"},
      {"target": "PCSK7 (UniProt Q16549)", "log2 fold change": "inactive: 0.202"},
      {"target": "PCNX3 (UniProt Q9H6A9)", "log2 fold change": "inactive: 0.04"},
      {"target": "PARD3 (UniProt Q8TEW0)", "log2 fold change": "inactive: 0.095"},
      {"target": "PANK1 (UniProt Q8TE04)", "log2 fold change": "inactive: 0.003"},
      {"target": "PEX10 isoform 2 (UniProt O60683)", "log2 fold change": "inactive: 0.143"}
    ]},
    {"compound": "CC1=NC(=CC=C1)C2=C(N=C(N2)C(C)(C)C)C3=CC4=NC=CN=C4C=C3", "experiment": "log2 fold change, soluble protein after heating vs DMSO (PISA); higher = thermal stabilisation; K562 cells, 10 uM, 30 min; active = over 0.2 and 3.5 SD of the protein, either way, in both replicates (recomputed)", "procedure,_shortened": "as §1", "values": [
      {"target": "PDCD2 (UniProt Q16342)", "log2 fold change": "inactive: -0.097"},
      {"target": "PDIA4, A0A499FI48", "log2 fold change": "inactive: -0.059"},
      {"target": "PCBP2 (UniProt F8VZX2)", "log2 fold change": "inactive: 0.005"},
      {"target": "PACSIN3 (UniProt Q9UKS6)", "log2 fold change": "inactive: -0.371"},
      {"target": "PDP1 isoform 2 (UniProt Q9P0J1)", "log2 fold change": "inactive: 0.183"},
      {"target": "PDE3B (UniProt Q13370)", "log2 fold change": "inactive: 0.091"},
      {"target": "PDE4DIP (UniProt E9PS60)", "log2 fold change": "inactive: 0.013"},
      {"target": "PAXBP1 (UniProt Q9Y5B6)", "log2 fold change": "inactive: -0.076"},
      {"target": "PALM (UniProt O75781)", "log2 fold change": "inactive: -0.001"}
    ]},
    {"compound": "CCCCN(Cc1ccc(C(=O)NO)cc1)C(=O)Nc1ccccc1 [Nexturastat A]", "experiment": "log2 fold change, soluble protein after heating vs DMSO (PISA); higher = thermal stabilisation; K562 cells, 10 uM, 30 min; active = over 0.2 and 3.5 SD of the protein, either way, in both replicates (recomputed)", "procedure,_shortened": "as §1", "values": [
      {"target": "PDCD2 (UniProt Q16342)", "log2 fold change": "inactive: 0.188"},
      {"target": "PCNX1 (UniProt Q96RV3)", "log2 fold change": "inactive: 0.106"},
      {"target": "PANK3 (UniProt Q9H999)", "log2 fold change": "inactive: -0.063"},
      {"target": "PACSIN3 (UniProt Q9UKS6)", "log2 fold change": "inactive: 0.207"},
      {"target": "PAGE4 (UniProt O60829)", "log2 fold change": "inactive: -0.066"},
      {"target": "PDXP (UniProt B1AHD3)", "log2 fold change": "inactive: -0.268"},
      {"target": "PDE3B (UniProt Q13370)", "log2 fold change": "inactive: 0.413"},
      {"target": "PAF1 (UniProt Q8N7H5)", "log2 fold change": "inactive: 0.081"},
      {"target": "PANK1 (UniProt Q8TE04)", "log2 fold change": "inactive: -0.085"}
    ]}
  ]
}
